Source: patent US20150004178A1
Results are given in words; binding and its absence hold for the method and conditions named. Some binding calls cover weakened binding; strength is not graded here.

Sequences of proteins named here, by UniProt entry; tags and fusion partners are left off. Residues count along the entry.
UniProt Q8TDQ0, residues 22-200: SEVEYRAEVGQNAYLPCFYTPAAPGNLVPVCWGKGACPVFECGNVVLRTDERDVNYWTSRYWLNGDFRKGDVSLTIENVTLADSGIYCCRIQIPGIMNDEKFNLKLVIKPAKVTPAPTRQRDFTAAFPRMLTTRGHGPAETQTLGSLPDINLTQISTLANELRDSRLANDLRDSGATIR
UniProt Q8NHL6, residues 24-458: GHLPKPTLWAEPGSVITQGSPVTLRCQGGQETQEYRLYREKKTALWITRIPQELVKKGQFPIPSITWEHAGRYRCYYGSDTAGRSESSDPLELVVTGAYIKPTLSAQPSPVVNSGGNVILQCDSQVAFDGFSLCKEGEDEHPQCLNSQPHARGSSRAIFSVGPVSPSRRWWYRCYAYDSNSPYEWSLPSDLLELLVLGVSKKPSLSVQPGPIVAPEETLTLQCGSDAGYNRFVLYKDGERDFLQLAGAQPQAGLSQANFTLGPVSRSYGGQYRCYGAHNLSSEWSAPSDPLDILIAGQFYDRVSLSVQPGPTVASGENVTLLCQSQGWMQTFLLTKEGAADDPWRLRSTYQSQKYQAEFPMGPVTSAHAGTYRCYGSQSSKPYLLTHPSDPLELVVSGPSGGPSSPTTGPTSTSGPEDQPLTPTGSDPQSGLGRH
UniProt Q8N423, residues 22-460: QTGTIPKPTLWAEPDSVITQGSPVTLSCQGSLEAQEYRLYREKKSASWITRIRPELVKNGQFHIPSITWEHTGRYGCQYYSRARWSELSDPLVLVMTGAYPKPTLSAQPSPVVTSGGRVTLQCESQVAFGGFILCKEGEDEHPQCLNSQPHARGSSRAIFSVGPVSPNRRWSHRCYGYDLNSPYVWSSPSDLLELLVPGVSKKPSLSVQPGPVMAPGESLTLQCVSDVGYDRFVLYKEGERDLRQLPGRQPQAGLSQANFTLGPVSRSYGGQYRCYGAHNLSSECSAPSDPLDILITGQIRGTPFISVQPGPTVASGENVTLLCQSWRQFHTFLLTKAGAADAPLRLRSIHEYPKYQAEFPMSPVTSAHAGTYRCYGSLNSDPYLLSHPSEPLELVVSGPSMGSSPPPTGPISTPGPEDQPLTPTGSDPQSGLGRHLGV

Target: T1, human sema4A (human) (UniProt Q9H3S1)
T1 sequence (looked up): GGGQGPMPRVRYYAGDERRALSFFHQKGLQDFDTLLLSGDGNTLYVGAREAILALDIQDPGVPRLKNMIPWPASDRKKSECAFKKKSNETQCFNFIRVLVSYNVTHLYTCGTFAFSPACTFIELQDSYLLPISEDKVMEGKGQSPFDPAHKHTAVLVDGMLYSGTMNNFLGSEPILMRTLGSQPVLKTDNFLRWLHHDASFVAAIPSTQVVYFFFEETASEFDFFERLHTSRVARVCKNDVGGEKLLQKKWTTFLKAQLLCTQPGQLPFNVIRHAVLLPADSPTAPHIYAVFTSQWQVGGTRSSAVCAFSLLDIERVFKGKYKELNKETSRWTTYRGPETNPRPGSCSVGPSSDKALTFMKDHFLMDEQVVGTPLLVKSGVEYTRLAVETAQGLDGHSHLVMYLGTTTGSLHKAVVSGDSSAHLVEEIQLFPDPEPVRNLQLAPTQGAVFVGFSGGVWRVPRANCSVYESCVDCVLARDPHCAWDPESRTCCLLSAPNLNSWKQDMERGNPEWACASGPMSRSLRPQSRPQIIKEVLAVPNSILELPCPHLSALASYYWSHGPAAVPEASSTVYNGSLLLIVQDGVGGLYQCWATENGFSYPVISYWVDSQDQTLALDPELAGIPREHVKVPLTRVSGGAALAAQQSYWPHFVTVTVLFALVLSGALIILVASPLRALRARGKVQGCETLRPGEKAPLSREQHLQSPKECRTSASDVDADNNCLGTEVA
Test: binding to sema4A transfected cell line (FIGS. 20A, 20B)

| binding | Substance |
| --- | --- |
| binds | human T-cell immunoglobulin domain and human mucin domain 3 (hTIM-3) (from UniProt Q8TDQ0 22-200) (receptor) |
| binds | human immunoglobulin-like transcript-2 (hILT-2) (from UniProt Q8NHL6 24-458) (receptor) |
| binds | human immunoglobulin-like transcript-4 (hILT-4) (from UniProt Q8N423 22-460) (receptor) |
